Data: publication PMC11255023
No constants are given. Whether binding was seen depends on the method and setting. Binding seen in cells or lysates may run through a third protein. Some entries that bind do so weakly or less than the wild type.

Amino acid sequences for entries named in this document (tags omitted).
UniProt Q5VYY1: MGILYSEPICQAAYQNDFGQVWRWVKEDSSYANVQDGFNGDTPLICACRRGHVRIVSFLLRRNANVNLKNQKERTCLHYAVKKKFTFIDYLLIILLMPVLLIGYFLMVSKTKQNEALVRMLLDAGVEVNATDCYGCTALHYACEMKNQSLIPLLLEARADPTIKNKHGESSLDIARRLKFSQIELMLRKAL
UniProt Q9Y6M1: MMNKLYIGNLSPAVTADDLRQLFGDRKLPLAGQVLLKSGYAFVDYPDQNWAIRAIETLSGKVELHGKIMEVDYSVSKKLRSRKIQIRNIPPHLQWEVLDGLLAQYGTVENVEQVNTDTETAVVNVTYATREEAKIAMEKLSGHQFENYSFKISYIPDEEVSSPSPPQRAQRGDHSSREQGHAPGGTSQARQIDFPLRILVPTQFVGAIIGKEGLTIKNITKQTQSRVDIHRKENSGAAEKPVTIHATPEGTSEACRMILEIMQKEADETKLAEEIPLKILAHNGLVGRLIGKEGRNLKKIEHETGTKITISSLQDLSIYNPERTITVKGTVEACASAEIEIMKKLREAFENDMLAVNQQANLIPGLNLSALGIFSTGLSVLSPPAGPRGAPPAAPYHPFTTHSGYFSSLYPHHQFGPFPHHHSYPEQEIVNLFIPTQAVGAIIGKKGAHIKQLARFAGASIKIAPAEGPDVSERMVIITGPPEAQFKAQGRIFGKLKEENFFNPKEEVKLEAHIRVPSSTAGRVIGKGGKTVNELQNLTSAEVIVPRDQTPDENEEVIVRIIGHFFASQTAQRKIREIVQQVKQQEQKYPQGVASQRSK
UniProt P53396: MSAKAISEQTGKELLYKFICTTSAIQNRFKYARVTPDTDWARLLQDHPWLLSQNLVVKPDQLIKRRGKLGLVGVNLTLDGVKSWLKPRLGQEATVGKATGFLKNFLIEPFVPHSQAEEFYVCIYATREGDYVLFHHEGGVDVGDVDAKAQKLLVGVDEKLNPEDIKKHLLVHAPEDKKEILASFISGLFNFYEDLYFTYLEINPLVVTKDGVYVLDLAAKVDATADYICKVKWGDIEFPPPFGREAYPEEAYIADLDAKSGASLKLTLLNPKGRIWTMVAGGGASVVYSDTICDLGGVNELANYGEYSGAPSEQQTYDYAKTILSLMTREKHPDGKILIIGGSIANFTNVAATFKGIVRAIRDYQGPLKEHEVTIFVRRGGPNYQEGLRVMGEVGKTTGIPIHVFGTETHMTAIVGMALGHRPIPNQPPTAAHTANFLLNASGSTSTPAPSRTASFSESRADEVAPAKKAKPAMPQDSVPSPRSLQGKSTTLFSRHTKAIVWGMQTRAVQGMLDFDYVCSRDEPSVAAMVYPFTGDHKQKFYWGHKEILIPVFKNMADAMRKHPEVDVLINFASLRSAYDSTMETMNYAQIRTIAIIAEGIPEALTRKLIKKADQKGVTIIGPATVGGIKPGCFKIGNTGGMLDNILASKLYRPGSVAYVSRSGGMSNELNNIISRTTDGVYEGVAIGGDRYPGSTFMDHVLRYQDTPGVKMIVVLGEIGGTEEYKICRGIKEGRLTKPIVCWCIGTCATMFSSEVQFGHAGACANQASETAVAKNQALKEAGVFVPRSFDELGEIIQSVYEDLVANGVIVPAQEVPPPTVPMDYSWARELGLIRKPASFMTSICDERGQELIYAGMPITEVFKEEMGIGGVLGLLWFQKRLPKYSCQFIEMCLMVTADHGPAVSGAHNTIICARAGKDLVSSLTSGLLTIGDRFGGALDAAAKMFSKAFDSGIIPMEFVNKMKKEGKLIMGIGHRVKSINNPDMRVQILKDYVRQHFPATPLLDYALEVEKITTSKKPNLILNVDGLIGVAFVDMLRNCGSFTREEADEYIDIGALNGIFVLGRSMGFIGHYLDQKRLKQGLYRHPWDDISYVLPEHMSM
UniProt P06730: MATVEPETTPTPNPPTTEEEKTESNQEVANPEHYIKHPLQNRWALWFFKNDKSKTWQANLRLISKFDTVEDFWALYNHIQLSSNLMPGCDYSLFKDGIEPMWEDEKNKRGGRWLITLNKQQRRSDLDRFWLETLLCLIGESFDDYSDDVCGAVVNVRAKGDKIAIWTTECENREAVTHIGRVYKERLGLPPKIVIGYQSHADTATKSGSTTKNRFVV

Experiments:
ANKRD22-Flag = ANKRD22-Flag (UniProt Q5VYY1); test: co-IP; Co-IP of ANKRD22 with key enzymes of lipid metabolism (Figure S8F); antibodies on protein A/G magnetic beads, cell lysates overnight at 4°C, western blotting
[1] = molecular target: ANKRD22 (human (endogenous in CNE2 and HONE1)) (UniProt Q5VYY1); test: co-IP; endogenous Co-IP in CNE2 and HONE1 cells with anti-ANKRD22 or anti-SLC25A1 antibody; also after overexpression of METTL14 (anti-SLC25A1 antibody); protein A/G magnetic beads, lysates overnight at 4°C, western blotting
[2] = molecular target: IGF2BP2 (human (endogenous in CNE2 and HONE1)) (UniProt Q9Y6M1); test: co-IP; IP in CNE2 and HONE1 cells; antibodies on protein A/G magnetic beads, cell lysates added overnight at 4°C, western blotting
full-length ANKRD22 = full-length ANKRD22 (UniProt Q5VYY1); test: co-IP; Co-IP with full-length and truncated ANKRD22 and SLC25A1 plasmids to map the interacting regions (Figure S8G,H)

“ACLY (from UniProt P53396 1-1101) (enzyme)” was tested, and the binding (ANKRD22-Flag) was “no binding”.

In the case of SLC25A1 (from UniProt P53007 14-311), the binding (ANKRD22-Flag) is reported as “binds” and the binding [1] is reported as “binds”.

With eIF4E (from UniProt P06730 1-217) the binding [2] was “binds”.

“SLC25A1-His (from UniProt P53007 14-311)” was tested, and the binding (full-length ANKRD22) was “binds”.
